Source: PubChem BioAssay AID504467 (National Center for Advancing Translational Sciences (NCATS), 2011)
Screen size: about 330,000 compounds; about 7,700 (2.3%) were called active. The inconclusive results got no clear call from the source; some entries with a clear call stand among them for comparison. Calls follow the shape of the dose curve; as a rule, active = well fitted inhibition curve with a large enough effect; inconclusive = small, poorly fitted or top-dose-only effect, or effect the other way; inactive = flat fitted curve, though single readings scatter. Potencies beside an inconclusive call are fits to weak or partial responses and may not hold up.

Assay: qHTS screen for small molecules that inhibit ELG1-dependent DNA repair in human embryonic kidney (HEK293T) cells expressing luciferase-tagged ELG1; also: nearly all actives have a fitted effect of over 55% in size
Conditions: HEK293T ELG1-luciferase reporter, luminescence, 16 h, DNA damage induced by 5-fluorouridine; activity change, negative = inhibition: at 46.1 µM (top of the series)
Summary of the method: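 5-Fluorouridine DNA damage + compound/DMSO, 2,000 cells/well, 16 h, 37 °C/5% CO2. ONE-Glo, 30 min RT, luminescence. Readout = decrease in reporter signal.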
% is scaled to controls: 0 for no effect and ±100 for the full control effect; potency is read from the fitted curve at half-maximal effect.

Structure (SMILES)	Potency	activity change, negative = inhibition
CCC1SC(=NC(=O)c2ccc(Cl)c(Cl)c2)NC1=O (stereo unspecified)	inconclusive: 20.6 µM [activator, partial curve]	–
COc1ccccc1-c1nc(SC)n[nH]1	inconclusive: 32.6 µM [activator, single point]	–
COc1ccc(-c2ccc(SCC(=O)c3ccccc3)nn2)cc1OC	inconclusive: 6.51 µM [activator, single point]	–
CCC1CCCCN1C(=O)CSc1nnc(-c2ccco2)o1 (stereo unspecified)	inconclusive: 18.4 µM [activator, partial curve]	–
Nc1nc(=S)[nH]c2c1C1(CCCCC1)Cc1ccccc1-2	–	inactive: 15.2%
CC(C)n1cnc2c(Nc3ccc(C(=O)O)cc3)nc(Cl)nc21	inconclusive: 20.6 µM [activator, single point]	–
Cc1nc2ccc(S(=O)(=O)Nc3cccc(-c4nc5cccnc5s4)c3)cc2s1	–	inactive: 3.47%
CC(=O)N1CCN(c2nc(C)nc3sc4c(c23)CCC(C)C4)CC1 (stereo unspecified)	–	inactive: -6.63%
CCOC(=O)C1(Cc2ccccc2Cl)CCN(C(=O)CCn2ccnc2C)CC1	inconclusive: 29.1 µM [activator, single point]	–
CC1CCN(S(=O)(=O)N2CCC(C(=O)NCCC3=CCCCC3)CC2)CC1	inconclusive: 29.1 µM [inhibitor, single point]	–
CCc1ccc(-n2c(=S)sc3c(=O)n(-c4ccccc4C)c(SCC(=O)O)nc32)cc1	–	inactive: -2.15%
CC(=O)c1ccc(OCC(=O)OCC(=O)Nc2sccc2C(N)=O)cc1	inconclusive: 35.5 µM [activator, partial curve, poor fit]	–
Cc1cc(C)c(C)c(S(=O)(=O)N[C@@H](C)C(=O)OCC(=O)NC2CCCC(C)C2C)c1C (stereo partly specified)	inconclusive: 23.1 µM [activator, single point]	–
Cc1cc(Cl)c(C)c(S(=O)(=O)N2CCN(CC(=O)N3CCOCC3)CC2)c1Cl	inconclusive: 1.16 µM [activator, full curve, poor fit]	–
CCN(CC)CCNC(=O)c1ccc2c(=O)n(CCc3ccccc3)c(=O)[nH]c2c1	inconclusive: 1.84 µM [activator, partial curve, poor fit]	–
O=C(COc1ccccc1Cl)N1CCN(c2ccccn2)CC1	–	inactive: 8.95%
CCCNC(=O)NCCC12CC3CC(CC(C3)C1)C2	inconclusive: 11.6 µM [activator, partial curve]	–
Cc1ccc(Cl)cc1N1CCN(C(=O)CNC(=O)c2ccc(Br)o2)CC1	inconclusive: 16.4 µM [inhibitor, single point]	–
CCS(=O)(=O)c1ccc(O)c(NC(=O)Nc2ccc(C(C)(C)C)cc2)c1	active: 14.6 µM	–
C=CCN1C(=O)c2ccccc2NC1c1cc(Br)cs1 (stereo unspecified)	–	inactive: -2.56%
CC/C(=N\NC(=O)c1ccc(-c2ccccc2)cc1)C12CC3CC(CC(C3)C1)C2	–	inactive: 12.5%
O=C1CCCC(O)=C1C1C2=C(CCCC2=O)OC2=C1C(=O)CCC2	–	inactive: 7.06%
CC(=O)N1CCn2c3ccc(C)cc3c3cccc1c32	inconclusive: 18.4 µM [activator, single point]	–

Structure (SMILES)	Potency	activity change, negative = inhibition
O=[N+]([O-])c1ccc(C23CC4CC(CC(O)(C4)C2)C3)cc1	inconclusive: 9.2 µM [activator, partial curve]	–
Cc1cccc(NC(=O)COc2ccc(-c3nn(C)c(=O)c4ccccc34)cc2)c1	active: 14.6 µM	–
O=[N+]([O-])c1ccc(N=Nc2ccc(O)cc2O)cc1	–	inactive: -27.1%
COc1c(Br)cc([N+](=O)[O-])c(OC)c1C(=O)NC(=O)Nc1cc(Cl)cc(Cl)c1	inconclusive: 20.6 µM [inhibitor, partial curve]	–
COc1ccccc1N/C(N)=N/c1nc(CSc2ccc(C)cc2)cc(=O)[nH]1	active: 10 µM	–
CCCCCCCC(=O)N/N=C/c1ccc(Br)cc1	–	inactive: 2.99%
Cc1cccc(C(=O)Nc2cccc(S(=O)(=O)NCc3ccco3)c2)c1	inconclusive: 25.9 µM [inhibitor, partial curve, poor fit]	–
COc1ccc(CNN2CCCCC2C(=O)Nc2ccc(OC)c(OCC(C)C)c2)cc1OC (stereo unspecified)	inconclusive: 25.9 µM [inhibitor, partial curve, poor fit]	–
N#Cc1ccc(OCc2nnc(SCC(=O)N3CCCc4ccccc43)n2-c2ccccc2)cc1	inconclusive: 29.1 µM [inhibitor, single point]	–
Cc1cc2ccccc2n2c(SCC(=O)N3CCOCC3)nnc12	inconclusive: 18.3 µM [inhibitor, single point]	–
CC(C(=O)NCc1ccc(F)cc1)c1ccc([N+](=O)[O-])cc1 (stereo unspecified)	inconclusive: 18.3 µM [inhibitor, partial curve, poor fit]	–
O=C(O)c1ccc(N/N=C/c2ccc3ncccc3c2)cc1	inconclusive: 0.13 µM [activator, full curve]	–
COc1ccc(C(=O)Cn2c(Cl)nc3c2c(=O)n(C)c(=O)n3C)cc1	active: 16.4 µM	–
CSc1nnc(NC(=O)c2cc3ccccc3oc2=O)s1	inconclusive: 20.6 µM [activator, single point]	–
O=[N+]([O-])c1ccc(O)c(Nc2ncnc3ccc(Br)cc23)c1	active: 13 µM	–
COc1cc(N)c(Cl)cc1NC(=O)c1ccccc1	inconclusive: 20.6 µM [activator, partial curve, poor fit]	–
CCc1cc(=O)oc2c3c(cc(OCC(=O)NCc4cccnc4)c12)OC(C)(C)CC3	active: 3.66 µM	–
Cc1cc(N2CCN(C)CC2)nc2ccc(NC(=S)NCCCN3CCc4ccccc4C3)cc12	inconclusive: 25.9 µM [activator, single point]	–
O=C(/C=C/c1cc(Br)ccc1F)OCC(=O)N1CCOCC1	–	inactive: 2%
CCOC(=O)c1cc(C(=O)OCC)cc(-n2cc(O)c(C(=O)OCC)n2)c1	–	inactive: -24.1%
CC(=O)c1cccc(N=Cc2c(O)ccc3ccccc23)c1	–	inactive: -10%
CCOC(=O)c1sc(NC(=O)c2cccc(S(=O)(=O)N3c4ccccc4CC3C)c2)cc1C (stereo unspecified)	–	inactive: 4.95%
CN(CC(=O)Nc1ccc(S(=O)(=O)N2CCCC2)cc1)Cc1ccc(Cl)cc1	inconclusive: 23.1 µM [inhibitor, single point]	–

Reformatted with bars between the fields: 2 of the compounds above
Structure (SMILES) | Potency | activity change, negative = inhibition
COc1c(Br)cc([N+](=O)[O-])c(OC)c1C(=O)NC(=O)Nc1cc(Cl)cc(Cl)c1 | inconclusive: 20.6 µM [inhibitor, partial curve] | –
COc1ccccc1N/C(N)=N/c1nc(CSc2ccc(C)cc2)cc(=O)[nH]1 | active: 10 µM | –
